Reference: publication PMC3079584
No constants are given. Whether binding was seen depends on the method and setting. For some of these results: Binding calls can cover weak binding; strength is not graded here. Sequences can lack the tags named with a protein.

By UniProt entry, the sequences of proteins in these tests, tags left out. Where a name states a change or a piece, a line headed by the entry shows the natural chain unless it says otherwise.
UniProt P32492: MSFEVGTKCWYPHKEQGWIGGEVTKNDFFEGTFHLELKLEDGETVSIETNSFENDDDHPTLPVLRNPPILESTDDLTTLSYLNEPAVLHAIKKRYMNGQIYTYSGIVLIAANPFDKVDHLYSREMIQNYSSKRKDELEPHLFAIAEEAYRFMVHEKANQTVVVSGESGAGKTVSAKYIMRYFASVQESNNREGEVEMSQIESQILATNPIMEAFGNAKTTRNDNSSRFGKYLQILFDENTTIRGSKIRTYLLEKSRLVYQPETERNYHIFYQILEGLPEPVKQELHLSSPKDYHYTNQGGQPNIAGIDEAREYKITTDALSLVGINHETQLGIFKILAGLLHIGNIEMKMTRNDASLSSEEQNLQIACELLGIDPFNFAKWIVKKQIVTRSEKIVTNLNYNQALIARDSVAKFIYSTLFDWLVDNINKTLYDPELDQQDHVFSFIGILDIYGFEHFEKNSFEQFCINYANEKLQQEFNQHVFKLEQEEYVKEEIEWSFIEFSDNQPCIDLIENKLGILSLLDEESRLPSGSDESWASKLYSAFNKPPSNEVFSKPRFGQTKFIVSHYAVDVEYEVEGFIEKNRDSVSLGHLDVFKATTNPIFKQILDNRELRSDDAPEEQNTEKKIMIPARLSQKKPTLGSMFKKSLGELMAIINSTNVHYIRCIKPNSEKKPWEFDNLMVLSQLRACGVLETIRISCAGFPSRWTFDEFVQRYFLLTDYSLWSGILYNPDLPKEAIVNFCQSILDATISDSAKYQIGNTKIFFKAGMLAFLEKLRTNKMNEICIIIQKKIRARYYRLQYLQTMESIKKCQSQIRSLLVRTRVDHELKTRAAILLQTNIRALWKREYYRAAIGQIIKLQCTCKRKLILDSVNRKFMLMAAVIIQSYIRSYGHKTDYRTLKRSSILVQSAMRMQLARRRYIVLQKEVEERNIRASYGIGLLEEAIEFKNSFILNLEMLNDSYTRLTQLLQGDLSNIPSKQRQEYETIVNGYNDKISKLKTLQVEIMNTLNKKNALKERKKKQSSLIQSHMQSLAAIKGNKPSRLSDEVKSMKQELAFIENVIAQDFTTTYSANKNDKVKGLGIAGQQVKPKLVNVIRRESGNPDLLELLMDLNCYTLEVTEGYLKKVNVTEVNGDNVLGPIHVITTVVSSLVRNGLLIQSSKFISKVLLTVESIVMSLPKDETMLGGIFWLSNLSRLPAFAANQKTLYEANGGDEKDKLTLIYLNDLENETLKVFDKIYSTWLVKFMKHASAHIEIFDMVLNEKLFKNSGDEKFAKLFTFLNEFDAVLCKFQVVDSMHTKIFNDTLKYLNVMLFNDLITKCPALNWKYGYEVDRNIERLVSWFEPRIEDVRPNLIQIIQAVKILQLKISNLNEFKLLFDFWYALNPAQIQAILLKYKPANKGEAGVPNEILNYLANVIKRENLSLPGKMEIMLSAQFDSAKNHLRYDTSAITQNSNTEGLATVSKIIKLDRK
UniProt P36068: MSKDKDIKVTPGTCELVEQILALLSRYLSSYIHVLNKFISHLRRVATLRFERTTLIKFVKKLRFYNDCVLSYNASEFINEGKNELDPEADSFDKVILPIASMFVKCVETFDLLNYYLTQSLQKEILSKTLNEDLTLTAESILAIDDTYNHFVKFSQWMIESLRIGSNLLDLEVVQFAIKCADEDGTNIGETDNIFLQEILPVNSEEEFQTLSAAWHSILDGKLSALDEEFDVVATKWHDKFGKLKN

How the values were obtained:
[1] = target: T1, Full-length His-She3p (Saccharomyces cerevisiae) (UniProt P38272); assay: SEC; analytical, Superose 6 10/300 GL, HNMD-buffer; 20 µM She2p (wild type or mutant), 30 µM She3p and 8.5 µM E3-118-tRNA preincubated 5 min at 20°C; fractions on SDS-PAGE and agarose gel; Myo4p tail added in Figure S3C; both purified
T1 sequence: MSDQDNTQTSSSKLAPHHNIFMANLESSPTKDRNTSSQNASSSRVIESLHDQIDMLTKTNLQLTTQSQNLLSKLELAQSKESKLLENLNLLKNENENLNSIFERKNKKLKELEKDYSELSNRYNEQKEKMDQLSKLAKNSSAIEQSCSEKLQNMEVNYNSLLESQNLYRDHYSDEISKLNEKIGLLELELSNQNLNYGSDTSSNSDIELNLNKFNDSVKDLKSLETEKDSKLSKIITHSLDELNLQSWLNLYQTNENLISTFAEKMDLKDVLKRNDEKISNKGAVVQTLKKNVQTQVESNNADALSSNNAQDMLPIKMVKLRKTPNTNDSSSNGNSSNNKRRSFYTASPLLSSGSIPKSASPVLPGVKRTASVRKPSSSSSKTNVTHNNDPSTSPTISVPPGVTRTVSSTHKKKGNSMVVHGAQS

[2] = target: T1, Full-length His-She3p (Saccharomyces cerevisiae); assay: pull-down; His-tagged She3p (full length, point mutants, or MBP-She3p fragment-His) on nickel sepharose, no RNA; 7.5–10 µM of each protein, HNMD-buffer (20 mM HEPES pH 7.8, 200 mM NaCl, 2 mM MgCl2, 2 mM DTT) with 30–50 mM imidazole, 30–60 min at 4°C; SDS-PAGE, Coomassie; both purified
[3] = target: T1, Full-length His-She3p (Saccharomyces cerevisiae); assay: SPR; Biacore 3000, CM-5 chip, She3p amine-coupled, She2p flowed over, HNMD-buffer; steady state, Langmuir isotherm; duplicates; both purified
[4] = target: T1, Full-length His-She3p (Saccharomyces cerevisiae); assay: condition: 20 µM She2p mutant, 30 µM She3p, 8.5 µM RNA; SEC; analytical, Superose 6 10/300 GL, HNMD-buffer; 20 µM She2p (wild type or mutant), 30 µM She3p and 8.5 µM E3-118-tRNA preincubated 5 min at 20°C; fractions on SDS-PAGE and agarose gel; Myo4p tail added in Figure S3C; both purified

Substance	binding [1]	binding [2]	binding [3]	binding [4]
Myo4p tail (from UniProt P32492) (domain or fragment)	binds	–	–	–
She2p (ΔhE) (from UniProt P36068)	–	no binding (tested: 7.5–10 µM of each protein)	no binding (tested: 150 µM)	no binding
